Experimental data as given in the supplement of paper PMC4604168 (melanoma cell lines).
The list shows a part of the results. Single values are uncertain, as repeats are few or missing.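 Cells were imaged in 1,536-well plates, and nuclei stained with an antibody against cleaved PARP were counted against all DNA-stained nuclei to give the apoptosis fraction. Screening doses were chosen to leave most cells alive, and resting and induced cleaved-PARP levels differ strongly between cell lines.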

Each compound was assayed on LOXIMVI (assay: cleaved PARP positive nuclei fraction relative to DMSO control; melanoma cells; higher = more apoptosis). Details: library dose: low library concentration; 72 h.

Row | SMILES | cleaved PARP positive nuclei fraction [%]
1 | CCN(CC)CCCCNc1ncc2cc(-c3cc(OC)cc(OC)c3)c(NC(=O)NC(C)(C)C)nc2n1 + COc1cc(N2CCC(N3CCN(C)CC3)CC2)ccc1Nc1ncc(Cl)c(Nc2ccccc2S(=O)(=O)C(C)C)n1 [NVP-TAE684] (first compound 0.1 µM, partner dose 0.08 µM) | 26.5
2 | O=C(Nc1ccccc1)c1cc([N+](=O)[O-])ccc1Cl + Cc1cc([N+](=O)[O-])ccc1NS(=O)(=O)c1cc(Cl)ccc1Cl [FH535] (first compound 2 µM, partner dose 1 µM) | 53.9
3 | COc1ccc(-c2ccc3c(N4CCOCC4)nc(N4C[C@@H](C)O[C@@H](C)C4)nc3n2)cc1CO + Cn1cc(/C=C2\C(=O)Nc3cccnc32)c2ccccc21 [GW441756] (first compound 0.02 µM, partner dose 0.4 µM) | 32.8
4 | COc1cc2c(Oc3ccc4[nH]c(C)cc4c3F)ncnc2cc1OCCCN1CCCC1 [cediranib] + O=c1cc(-c2cccc3c2Sc2ccccc2S3)oc(N2CCOCC2)c1 [KU55933] (first compound 0.4 µM, partner dose 1 µM) | 48.2
